PubChem BioAssay AID720505 | Drosophila RNAi Screening Center, 2013
The screen tested about 20,000 reagents; shown is a random part of those that have a named target and a result. Of all reagents, about 2,100 (10%) are marked active. 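Raw plate signals without normalisation; calls rest on control-based scores that were not deposited; replicate 2 separates called from uncalled poorly.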 Reagents against one gene are numbered here. Reagent sequences are not shown. The record does not give: the amount of reagent, the time to read-out.

Assay: 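Fly regulators or components of the CRAC channel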 (primary screen)
Cells: Drosophila S2R+ cells
Reagents: long dsRNA against Drosophila genes
Treatment: thapsigargin (2 µM) in calcium-free buffer to empty internal stores, then 2 mM calcium added back
Read-out: 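Fluo-4 signal in 384-well plates read on a FLIPR after thapsigargin (2 µM, calcium-free) store depletion and 2 mM calcium add-back; unnormalised mean endpoint per well; screen run twice, selected wells retested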
Direction: calcium signal and retest calcium signal: higher = more calcium entry after store depletion
Hit rule: 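About 1500 genes called as lowering calcium entry, by varying amounts, judged against per-plate control wells with STIM1 as positive and Rho1 as negative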
Meaning of the calls: active = called as lowering calcium entry; inactive = not called

| predicted target | reagent no. | calcium signal, replicate 1 | calcium signal, replicate 2 | retest calcium signal, replicate 1 | retest calcium signal, replicate 2 | activity call |
| --- | --- | --- | --- | --- | --- | --- |
| CG4679 | 1 | 101 | 178 | – | – | inactive |
| mgr | 1 | 91 | 94.9 | – | – | inactive |
| Rabex-5 | 1 | 125 | 97 | – | – | inactive |
| RabX6 | 1 | 102 | 137 | – | – | inactive |
| CG5913 | 1 | 219 | 165 | – | – | inactive |
| Saysd1 | 1 | 290 | 170 | – | – | inactive |
| disp | 1 | 120 | 180 | – | – | inactive |
| Cpr97Ea | 1 | 152 | 159 | – | – | inactive |
| CG30344 | 1 | 83.4 | 153 | – | – | inactive |
| Jhbp12 | 1 | 233 | 126 | – | – | inactive |
| MYPT-75D | 1 | 129 | 120 | – | – | inactive |
| CG3999 | 1 | 112 | 114 | – | – | inactive |
| tst | 1 | 211 | 287 | – | – | inactive |
| CG17187 | 1 | 65.9 | 108 | – | – | active |
| rho | 1 | 80.7 | 98.9 | – | – | inactive |
| CG2747 | 1 | 90 | 181 | – | – | inactive |
| CG5114 | 1 | 98.1 | 68.6 | – | – | inactive |
| mRpS16 | 1 | 84.1 | 174 | – | – | inactive |
| CG3277 | 1 | 108 | 100 | – | – | inactive |
| chn | 1 | 169 | 93.7 | – | – | inactive |
| Etf-QO | 1 | 102 | 108 | – | – | inactive |
| PH4alphaEFB | 1 | 132 | 145 | – | – | inactive |
| PH4alphaEFB | 2 | 151 | 163 | – | – | inactive |
| lwr | 1 | 99.7 | 158 | – | – | inactive |
| CG17202 | 1 | 136 | 115 | – | – | inactive |
| CG17202 | 2 | 106 | 96.5 | – | – | inactive |
| shu | 1 | 86.4 | 74.1 | – | – | inactive |
| CG32986 | 1 | 112 | 88.1 | – | – | inactive |

Next part; the last 4 above are carried over.
| predicted target | reagent no. | calcium signal, replicate 1 | calcium signal, replicate 2 | retest calcium signal, replicate 1 | retest calcium signal, replicate 2 | activity call |
| --- | --- | --- | --- | --- | --- | --- |
| CG17202 | 1 | 136 | 115 | – | – | inactive |
| CG17202 | 2 | 106 | 96.5 | – | – | inactive |
| shu | 1 | 86.4 | 74.1 | – | – | inactive |
| CG32986 | 1 | 112 | 88.1 | – | – | inactive |
| Or67c | 1 | 96.6 | 111 | – | – | inactive |
| CARPB | 1 | 121 | 109 | 98.3 | 77.9 | inactive |
| CARPB | 2 | 49.8 | 55.3 | – | – | active |
| tbrd-1 | 1 | 151 | 155 | – | – | inactive |
| Cul5 | 1 | 186 | 119 | – | – | inactive |
| Obp56a | 1 | 171 | 148 | – | – | inactive |
| Nsf2 | 1 | 75.1 | 187 | – | – | inactive |
| Ldaf1 | 1 | 102 | 156 | – | – | inactive |
| Hers | 1 | 143 | 133 | – | – | inactive |
| Hers | 2 | 58.5 | 97.1 | – | – | active |
| Klp61F | 1 | 52.2 | 57.1 | – | – | active |
| slv | 1 | 64.9 | 77.2 | – | – | active |
| CG8086 | 1 | 124 | 244 | – | – | inactive |
| CG8086 | 2 | 144 | 150 | – | – | inactive |
| Pka-C2 | 1 | 156 | 163 | – | – | inactive |
| Pka-C2 | 2 | 131 | 172 | – | – | inactive |
| Tret1-1 | 1 | 102 | 160 | – | – | inactive |
| Tret1-1 | 2 | 97.2 | 208 | – | – | inactive |
| amos | 1 | 148 | 103 | – | – | inactive |
| CG2652 | 1 | 121 | 163 | 110 | 86.7 | inactive |
| CG2652 | 2 | 159 | 191 | – | – | inactive |
| wls | 1 | 110 | 126 | – | – | inactive |
| Ggt-1 | 1 | 136 | 183 | – | – | inactive |
| Pcmt | 1 | 37.8 | 111 | – | – | active |
| CG9646 | 1 | 140 | 114 | – | – | inactive |
| RNASEK | 1 | 80.9 | 79 | – | – | active |
| CG31370 | 1 | 184 | 104 | – | – | inactive |
| Mks1 | 1 | 66.7 | 94.8 | – | – | active |
| CG34054 | 1 | 98.1 | 153 | – | – | inactive |
| gry | 1 | 88.7 | 76.9 | – | – | inactive |
| mthl6 | 1 | 114 | 99.3 | – | – | inactive |
| Scsalpha1 | 1 | 133 | 112 | – | – | inactive |
| CSN5 | 1 | 174 | 198 | – | – | inactive |
| CSN5 | 2 | 91.1 | 230 | – | – | inactive |
| CG10324 | 1 | 123 | 138 | – | – | inactive |
| Yp2 | 1 | 152 | 111 | – | – | inactive |
| Cyp313a2 | 1 | 112 | 89.3 | – | – | inactive |
| Cap-D3 | 1 | 93.3 | 118 | – | – | inactive |
| VhaM9.7-b | 1 | 75.9 | 148 | – | – | inactive |
| CG12963 | 1 | 112 | 137 | – | – | inactive |
| CG12963 | 2 | 113 | 170 | – | – | inactive |
| Ten-a | 1 | 92.7 | 83.1 | – | – | inactive |
| Ten-a | 2 | 98.5 | 90 | – | – | inactive |
| Ten-a | 3 | 124 | 81 | – | – | inactive |
| Ten-a | 4 | 118 | 95.2 | – | – | inactive |
| Ten-a | 5 | 75.4 | 120 | – | – | active |
| Ten-a | 6 | 125 | 88.7 | – | – | inactive |
| Ten-a | 7 | 160 | 83.8 | – | – | inactive |
| Ten-a | 8 | 124 | 159 | – | – | inactive |
| CG34353 | 1 | 82.1 | 118 | – | – | inactive |
| CG34353 | 2 | 104 | 99.6 | – | – | inactive |
| CG34353 | 3 | 133 | 95.1 | – | – | inactive |
| CG34353 | 4 | 132 | 82.1 | – | – | inactive |
| CG34353 | 5 | 88 | 165 | – | – | inactive |
| LysS | 1 | 65.4 | 111 | – | – | inactive |
